{"source": "patent US11685741B2", "about": "“Fluorescent probes” (University of Massachusetts, priority 2017, dated 2023)", "key": {"[1]": {"assay": "Binding studies of sensor with Fe3+ (Job's plot, titration, EDTA reversibility)", "conditions": "ACN/Tris-HCl buffer pH 7.3", "method": "Job's method and UV-vis spectra were applied to study the binding stoichiometry between Rh-PK and Fe^3+ and monitored by the absorbance at 555 nm. […] The binding constant of this complex was calculated following a method reported previously (G. E. Tumambac, et al., Tetrahedron 2004, 60, 11293-11297), using absorption values at […] by the equations described below, and was determined to be 1.54×10^7 […].\nThe equations below was used to calculate the binding constants with stoichiometry of 1:1. L+S↔LS where L=sensor, S=Fe3+ and LS=sensor-Fe^3+ complex. The apparent binding constant is given by\n[formula] […] Au, Am, and Ac are the absorbances of solutions of L (before any Fe^3+ was added), during the titration and at saturation, respectively. […] [S]e=[S]o−[LS]e=[S]o−Fc[L]o The apparent binding constant K can then be calculated from […]\nThe stoichiometry of RhHPA-Fe^3+ was measured using Job's plot and mole ratio plots methods. B. Valeur, Molecular Fluorescence: Principles and Applications, Wiley-VCH. […] To determine the binding constant of chemosensor, a fluorescence titration of different amounts of Fe^3+ into the acetonitrile solution of sensor was carried out. […]\nAbsorption enhancement observation at 558 nm was plotted against the molar value of the [Fe^3+]/[Fe^3+]+RhHPA and [Fe^3+]/RhHPA. […] Binding constant of fluorescent sensor “RhHPA” was calculated and it was found as K=1.27×10^7 M^−1. […]"}, "[2]": {"tested_on": "human fibroblast cells (ws1)", "assay": "Confocal imaging of Fe3+ with Rh-PK in ws1 cells", "format": "cell-based", "conditions": "colocalization with MitoTracker / LysoTracker", "method": "Human SH-SY5Y neuroblastoma cells and primary fibroblast ws1 cells were obtained from ATCC (American Type Culture Collection). Cells were maintained in a 1:1 mixture of Eagle's Minimal Essential medium (ATCC) and Ham's F12 medium (ATCC) supplemented with 10% fetal bovine serum (FBS, ATCC) without antibiotics and incubated at 37° C. in a humidified 5% CO2 atmosphere. The cells were routinely sub-cultured using 0.05% trypsin-EDTA solution (ATCC). The cells were seeded onto 2-chamber slides for 48 h at 5×10^4 cells/chamber and grown until each chamber was 20-30% confluent. A stock solution of Rh-PK ([…] in […]) was diluted to a concentration of […] in culture medium without FBS. […] The fluorescence responses of the sensor in living cells were measured under a Zeiss LSM 710 laser scanning confocal microscope. […] The REUSE function controlled by Zeiss software was applied to guarantee that all spectra were recorded under the same instrumental conditions.\nThe ability of Rh-PK to track Fe^3+ in live human fibroblast cells (ws1) was tested via a laser scanning confocal microscope (Zeiss LSM 710). […] Turn on fluorescence was observed, which is likely being triggered by endogenous labile Fe^3+. […]\nFIG. 17A to FIG. 17C show the distribution of exchangeable Fe^3+ pools in live fibroblast cells (ws1). […] FIG. 17A is the Rh-PK-Fe3+ fluorescence intensity collected at 547-703 nm (red). […]"}, "[3]": {"tested_on": "Bovine aortic endothelial cells (BAEC)", "assay": "Confocal imaging of Fe3+ with RhHPA in BAEC cells", "format": "cell-based", "conditions": "MitoTracker Green FM and LysoTracker blue DND-22", "method": "Primary cultured Bovine aortic endothelial cells (BAEC) were passaged in Endothelial Basal Medium (Lonza) containing 5% fetal bovine serum. Before the experiment, the cells were cultured to about 8th generation. For experiment preparation, the cells were routinely subcultured using 0.05% trypsin-EDTA solution. The cells were seeded on the 25 cm^2 flask and medium change every two days until a 70% confluency before transferring into disks. The cells were seeded on the 1 cm^2 disk and a medium change the next day.\nTo evaluate the ability of RhHPA to capture Fe^3+ ions in cells, BAEC cells were incubated with the sensor (10 μM) for 30 min.\nBAEC cells were incubated with 10 μM of ferric chloride (FeCl3) at 37° C. for overnight, then 10 μM of RhHPA was added to BAEC cells and was incubated at 37° C. for 30 min.\nFor the second control experiment, an Fe^3+-chelator SIH was added to iron-loaded and non-iron-loaded cells with RhHPA.\nBAEC cells (without Fe^3+ treatment) were treated with RhHPA, MitoTracker Green FM and LysoTracker blue DND-22. As shown in FIG. 20A to FIG. 20H, there are partial colocalization between RhHPA-Fe^3+ and the MitoTracker (FIG. 20E) as well as that between RhHPA-Fe^3+ and the LysoTracker (FIG. 20F); however, a […] colocalization was observed among RhHPA-Fe^3+, MitoTracker and LysoTracker (FIG. 20G)."}}, "note": "Entries after “also recorded” stand apart in the source; their conditions may differ.", "data": [{"molecule": "CCN(CC)c1ccc2c(c1)Oc1cc(N(CC)CC)ccc1C21c2ccccc2C(=O)N1CC/N=C(\\C)c1cccc(C(C)=O)n1", "note": "[Rh-PK, (E)-2-(2-((1-(6-acetylpyridin-2-yl)ethylidene)amino)ethyl)-3′,6′-bis(diethylamino)spiro[isoindoline-1,9′-xanthen]-3-one]", "values": [{"measurement": "reversibility of binding on addition of EDTA", "setting": "[1]", "value": "reversible binding"}, {"measurement": "subcellular location of labile Fe^3+ detected", "setting": "[2]", "value": "mitochondria and lysosomes"}, {"measurement": "subcellular location of labile Fe^3+ detected", "setting": "[2]; listed as Rh-Pk", "value": "mitochondria only"}]}, {"molecule": "CCN(CC)c1ccc2c(c1)Oc1cc(N(CC)CC)ccc1C21c2ccccc2C(=O)N1/N=C/c1cccc(CO)n1", "note": "[RhHPA, (E)-3′,6′-bis(diethylamino)-2-(((6-(hydroxymethyl)pyridin-2-yl)methylene)amino)spiro[isoindoline-1,9′-xanthen]-3-one]", "values": [{"measurement": "subcellular location of exchangeable Fe^3+ pools detected", "setting": "[3]", "value": "mitochondria and lysosomes; also recorded: mitochondria and endosomes/lysosomes, not in cytosol"}, {"measurement": "reversibility of binding on addition of EDTA", "setting": "[1]", "value": "reversible"}]}]}
